Data published in patent US20140039042.

By UniProt entry, the sequences of proteins in these tests, tags left out. Residues count along the entry.
UniProt P08637, 17-208: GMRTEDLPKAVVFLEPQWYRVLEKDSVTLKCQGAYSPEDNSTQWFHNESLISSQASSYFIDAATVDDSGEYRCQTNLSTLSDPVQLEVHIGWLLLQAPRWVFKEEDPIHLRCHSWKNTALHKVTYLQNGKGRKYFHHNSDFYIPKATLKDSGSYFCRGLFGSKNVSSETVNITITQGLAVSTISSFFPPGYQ
UniProt P08581, 25-932: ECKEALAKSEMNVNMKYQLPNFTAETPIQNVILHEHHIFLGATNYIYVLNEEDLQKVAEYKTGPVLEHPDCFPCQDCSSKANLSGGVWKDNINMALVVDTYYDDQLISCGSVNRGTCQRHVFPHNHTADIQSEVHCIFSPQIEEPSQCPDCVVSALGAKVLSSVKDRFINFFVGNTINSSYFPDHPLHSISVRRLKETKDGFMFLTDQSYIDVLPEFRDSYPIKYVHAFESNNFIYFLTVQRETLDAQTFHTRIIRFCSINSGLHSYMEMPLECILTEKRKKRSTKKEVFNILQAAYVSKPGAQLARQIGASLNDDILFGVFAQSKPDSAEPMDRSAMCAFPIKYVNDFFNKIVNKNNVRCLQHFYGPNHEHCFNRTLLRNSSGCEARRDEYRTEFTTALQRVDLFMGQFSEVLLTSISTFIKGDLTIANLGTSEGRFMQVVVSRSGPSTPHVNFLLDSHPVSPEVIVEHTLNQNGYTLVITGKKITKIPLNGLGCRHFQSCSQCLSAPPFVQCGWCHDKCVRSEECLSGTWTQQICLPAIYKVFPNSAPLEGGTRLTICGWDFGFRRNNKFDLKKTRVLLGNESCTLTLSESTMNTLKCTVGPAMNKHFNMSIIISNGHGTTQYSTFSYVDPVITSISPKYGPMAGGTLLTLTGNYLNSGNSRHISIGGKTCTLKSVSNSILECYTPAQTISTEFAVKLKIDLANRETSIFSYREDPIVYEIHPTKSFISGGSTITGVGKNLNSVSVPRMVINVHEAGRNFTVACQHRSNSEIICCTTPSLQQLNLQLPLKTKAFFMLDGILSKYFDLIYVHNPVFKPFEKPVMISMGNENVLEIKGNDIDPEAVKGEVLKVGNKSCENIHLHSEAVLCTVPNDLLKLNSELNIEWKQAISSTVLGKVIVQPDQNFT

biological target: CD16α (FcγRIIIa) V158 allotype, CD16α-6His (UniProt P08637); experiment: SELEX; settings: cell SELEX; listed as binding specifically to CD16; purified recombinant protein; protein details: 6His; single-stranded DNA

Selection result, selected:
GGAGGGAAAAGTTATCAGGCACGGACTCGCAAAAGGTGGAACAGGAGTGGGCCCCGCGGCGATTAGTTTTGGAGTACTCGCTCC [CLN0118], GGAGGGAAAAGTTATCAGGCAGGCGCGAGAAATATCGAAACACCGGACGGTCGCGACGCTGATTAGTTTTGGAGTACTCGCTCC [CLN0122], GGAGGGAAAAGTTATCAGGCAGTGTAGGGAGCGGAGTAGGCAGGCGTAGGTCCTGTGGTGATTAGTTTTGGAGTACTCGCTCC [CLN0125], GGAGGGAAAAGTTATCAGGCATAGGCAACGGGGATGATAACCAGTTGGGGTGGGACGAGGGATTAGTTTTGGAGTACTCGCTCC [CLN0128], GGAGGGAAAAGTTATCAGGCCACCCGTCAGGGGTTCGTTGTGAGGAGAGAGGGTTGGGCCGATTAGTTTTGGAGTACTCGCTCC [CLN0120], GGAGGGAAAAGTTATCAGGCCCGGGAGAATTAGATTAAAACGCGGAACGCCCCGTGCCCGGATTAGTTTTGGAGTACTCGCTCC [CLN0124], GGAGGGAAAAGTTATCAGGCCGAGTGAAAGAGGCAGGTGTAGGTCCCGTGGAGGTCAGGTGATTAGTTTTGGAGTACTCGCTCC [CLN0121], GGAGGGAAAAGTTATCAGGCGGCGTTGTCGGGCGCAGGTGTAGGCCTCGTGGTGGTGGGTGATTAGTTTTGGAGTACTCGCTCC [CLN0126], GGAGGGAAAAGTTATCAGGCGGGGGACAAGGGTCGGGTATGGGCGCCTCGAGAACTGGGTGATTAGTTTTGGAGTACTCGCTCC [CLN0127], GGAGGGAAAAGTTATCAGGCTGCGGCGAGAAATGTCGAAACGGTGAAACCCGCCATGCGTGATTAGTTTTGGAGTACTCGCTCC [CLN0119]

same assay, conditions: listed as binding specifically to CD16; purified recombinant protein; protein details: 6His; single-stranded DNA

Selection result, selected:
GGAGGGAAAAGTTATCAGGCAACGGGAAGAAATGTCGAAACCCTTGAAAGGTCACGGACTGATTAGTTTTGGAGTACTCGCTCC [CLN0019], GGAGGGAAAAGTTATCAGGCAGGTGTAGGCCCTGTGGTGATGAATCGCGTGTCGAGGGGTGATTAGTTTTGGAGTACTCGCTCC [CLN0027], GGAGGGAAAAGTTATCAGGCCAAGCACAAGAACTTTCAAAACGCAGAATGCTGGGCTTGGGATTAGTTTTGGAGTACTCGCTCC [CLN0016], GGAGGGAAAAGTTATCAGGCCAGAACAAAGCGGGAGAATTATGAAAACGCGGAACGCCACGATTAGTTTTGGAGTACTCGCTCC [CLN0025], GGAGGGAAAAGTTATCAGGCCAGACGAGAATTTGGAAAACGCGGAACGCCGTCTGGTGTGGATTAGTTTTGGAGTACTCGCTCC [CLN0017], GGAGGGAAAAGTTATCAGGCCAGCCACTGGAGAAAGTAAGAAACGCAGAATGCCCAGTGGGATTAGTTTTGGAGTACTCGCTCC [CLN0032], GGAGGGAAAAGTTATCAGGCCGCAGCGGAGAAATTTCGAAACCCAGGATGGCCGCGAGGTGATTAGTTTTGGAGTACTCGCTCC [CLN0028], GGAGGGAAAAGTTATCAGGCGACGGGACGAAAAACGGTTGGATGAGGTTGGTTGGGTGTGGATTAGTTTTGGAGTACTCGCTCC [CLN0029], GGAGGGAAAAGTTATCAGGCGACGTTAAGCTAGCAGGTGTTAGGTCCCGTGGTGATGAATGATTAGTTTTGGAGTACTCGCTCC [CLN0023], GGAGGGAAAAGTTATCAGGCGCAAGTATGAGCGCAGGAGTTAGGTCCCGTGGCGATGGGTGATTAGTTTTGGAGTACTCGCTCC [CLN0021], GGAGGGAAAAGTTATCAGGCGCTAAGAGAAATATCGAAACCCTGGATAGGCTGAGTGACTGATTAGTTTTGGAGTACTCGCTCC [CLN0026], GGAGGGAAAAGTTATCAGGCGGCAGAAGAAATATCGAAACCCAGAATGGTCGGCCAGGCGGATTAGTTTTGGAGTACTCGCTCC [CLN0015], GGAGGGAAAAGTTATCAGGCGGCCAGAGAAATGTCGAAACCCGGTAACGGATGGTAAGCTGATTAGTTTTGGAGTACTCGCTCC [CLN0031], GGAGGGAAAAGTTATCAGGCGGGAGGAGAATTAATAAAAACCCGGGACGGCCGACGGGATGATTAGTTTTGGAGTACTCGCTCC [CLN0024], GGAGGGAAAAGTTATCAGGCGTAGGTGGGGGACTGGGGACGGGTATGGGCACACGGTATGATTAGTTTTGGAGTACTCGCTCC [CLN0022], GGAGGGAAAAGTTATCAGGCTAAACCCCAAAACAGTGCAACTAGGTGTAGGTCCCGTGGTGATTAGTTTTGGAGTACTCGCTCC [CLN0030]

same assay, conditions: mRfY: 2'-OMe purines, 2'-F pyrimidines; mRfY; listed as CD16 specific; purified recombinant protein; protein details: 6His

Selection result, selected:
GGAGGGAAAAGUUAUCAGGCAAUGACAUAUUUCUUAUAUCGGGUUUGGAGUGCCUUGCCUAGAUUAGUUUUGGAGUACUCGCUCC [CLN0072], GGAGGGAAAAGUUAUCAGGCAAUGACAUUUUCUUAUAUCGGGUUUGGAGUGCCCUGCCUAGAUUAGUUUUGGAGUACUCGCUCC [CLN0076], GGAGGGAAAAGUUAUCAGGCAUGUAUUGCGGAUGAUUUUGUAUUUAAUGUGUAUGCCUCGGAUUAGUUUUGGAGUACUCGCUCC [CLN0077]

same assay, conditions: rRfY: 2'-OH purines, 2'-F pyrimidines; purified recombinant protein; protein details: 6His

Selection result, selected:
GGAGGGAAAAGUUAUCAGGCACGUAGUGGGAGGACGCGGAAAGUCGAGCGCAUUAGGUGGGAUUAGUUUUGGAGUACUCGCUCC [CLN0059], GGAGGGAAAAGUUAUCAGGCACGUAGUUGAAGGACUUUUGGGUUGAGCGGACUAGGUGUAGAUUAGUUUUGGAGUACUCGCUCC [CLN0063], GGAGGGAAAAGUUAUCAGGCAGUGAGAGGUUAAAGGAAGGGUGCGUUGUCAAAGGCUGGUGAUUAGUUUUGGAGUACUCGCUCC [CLN0048], GGAGGGAAAAGUUAUCAGGCAUAGAGGUGAGAGGAAGGGUGUGUUGUAUGUUGAUAACGAGAUUAGUUUUGGAGUACUCGCUCC [CLN0057], GGAGGGAAAAGUUAUCAGGCCAGAGAAACAUAAACCAUAAACGCAGAAGCUGGCUGUGAGGAUUAGUUUUGGAGUACUCGCUCC [CLN0061], GGAGGGAAAAGUUAUCAGGCCCGGCUUCGAAGGGUGAAUACUGAGCGGAAGUGAGAGGAAGAUUAGUUUUGGAGUACUCGCUCC [CLN0051], GGAGGGAAAAGUUAUCAGGCCUAGUGUUAUGACCCUAGAAAUAGAUGAGUUGAGAGGUCGGAUUAGUUUUGGAGUACUCGCUCC [CLN0054], GGAGGGAAAAGUUAUCAGGCGCAAGGAGGUAAAAGGAAGGGUGGUUGCUUGGCGCUAACGGAUUAGUUUUGGAGUACUCGCUCC [CLN0052], GGAGGGAAAAGUUAUCAGGCGCAUGUGAAGGGACCAAUCCGAGCGACAUGGUGCGGGAUAGAUUAGUUUUGGAGUACUCGCUCC [CLN0055], GGAGGGAAAAGUUAUCAGGCGCGGUGGAAGGCUGAACAUUGGCGAGCGCAUCGGAGAUCUGAUUAGUUUUGGAGUACUCGCUCC [CLN0060], GGAGGGAAAAGUUAUCAGGCGUAAGCGAAGGGUCAAAAAGGCCGAGCGGUUUAGGCAUCAGAUUAGUUUUGGAGUACUCGCUCC [CLN0049], GGAGGGAAAAGUUAUCAGGCGUAAUGGAAGGGCGUUAUGAACGCUGAGCGCAUUAGGGGUGAUUAGUUUUGGAGUACUCGCUCC [CLN0053], GGAGGGAAAAGUUAUCAGGCGUUCUUGUAGUGCAUCCAAUUGCAGAGCGAAGGAGGUGUUGAUUAGUUUUGGAGUACUCGCUCC [CLN0062], GGAGGGAAAAGUUAUCAGGCUAAACCCCAAAACAGUGCAACUAGGUGUAGGUCCCGUGGUGAUUAGUUUUGGAGUACUCGCUCC [CLN0050], GGAGGGAAAAGUUAUCAGGCUAUGGAAGGGAUAGGGUAUCCGAGCGCAGAGGCUGAGGAUUAGUUUUGGAGUACUCGCUCC [CLN0056], GGAGGGAAAAGUUAUCAGGCUCACGAAGUCAGCAAUAAUUUGCUGUAGGCGGUGGGGACUGAUUAGUUUUGGAGUACUCGCUCC [CLN0058], GGAGGGAAAAGUUAUCAGGCUGCGGAAGGUAGGUUAUACGAGCGCGCAGGACUGGUAAUAGAUUAGUUUUGGAGUACUCGCUCC [CLN0047]

biological target: c-Met Fc fusion (UniProt P08581); experiment: SELEX; settings: listed as binding specifically to c-Met; did not meet low nM criterion; purified recombinant protein; protein details: Fc-His fusion; single-stranded DNA

Selection result, selected:
GGAGGGAAAAGTTATCAGGCAAAGGAGAAGGCTCAAAACGGCCTGGGTGGTGGGTATGTGGATTAGTTTTGGAGTACTCGCTCC [CLN0005], GGAGGGAAAAGTTATCAGGCAAAGGAGAAGGTCCAAAACGGCCTGGGTGGTGGGTATGTGGATTAGTTTTGGAGTACTCGCTCC [CLN0002], GGAGGGAAAAGTTATCAGGCAAGGCGTGTGTATCCCTGTGGTAGGGGTTGGTCGGGGTGGGATTAGTTTTGGAGTACTCGCTCC [CLN0012], GGAGGGAAAAGTTATCAGGCAGCAAACAGCAGGTAGAGGGAAGTGGCAGATCGGGGTGGGGATTAGTTTTGGAGTACTCGCTCC [CLN0007], GGAGGGAAAAGTTATCAGGCCAGGGTCGGGATTGGGCGGGGTCTGGAAGATCATGTGCCAGATTAGTTTTGGAGTACTCGCTCC [CLN0013], GGAGGGAAAAGTTATCAGGCCGACAGTGGGTAGCGGTTAAGGGGAAGTGGCTTGGGGTGGGATTAGTTTTGGAGTACTCGCTCC [CLN0010], GGAGGGAAAAGTTATCAGGCCGGGGGGGGAAGACGAGTGTAAGTTGGTAGGGTGGGGTAGGATTAGTTTTGGAGTACTCGCTCC [CLN0014], GGAGGGAAAAGTTATCAGGCCGGGGTGGGATAAAAGCATGGTTGGTAGGGGTTGGGGCATGATTAGTTTTGGAGTACTCGCTCC [CLN0011], GGAGGGAAAAGTTATCAGGCCGGGGTGGGGAGTAACAGGCTGTTGGTAGGGGTGGACCTGGATTAGTTTTGGAGTACTCGCTCC [CLN0001]

For at least one entry, the source does not settle the construct or the ends of the probe.
